Structures are written as SMILES. Structures were worked out from names or drawings and are uncertain.

The chains behind the UniProt entries cited, without tags or fusion partners.
UniProt P22411, whole entry: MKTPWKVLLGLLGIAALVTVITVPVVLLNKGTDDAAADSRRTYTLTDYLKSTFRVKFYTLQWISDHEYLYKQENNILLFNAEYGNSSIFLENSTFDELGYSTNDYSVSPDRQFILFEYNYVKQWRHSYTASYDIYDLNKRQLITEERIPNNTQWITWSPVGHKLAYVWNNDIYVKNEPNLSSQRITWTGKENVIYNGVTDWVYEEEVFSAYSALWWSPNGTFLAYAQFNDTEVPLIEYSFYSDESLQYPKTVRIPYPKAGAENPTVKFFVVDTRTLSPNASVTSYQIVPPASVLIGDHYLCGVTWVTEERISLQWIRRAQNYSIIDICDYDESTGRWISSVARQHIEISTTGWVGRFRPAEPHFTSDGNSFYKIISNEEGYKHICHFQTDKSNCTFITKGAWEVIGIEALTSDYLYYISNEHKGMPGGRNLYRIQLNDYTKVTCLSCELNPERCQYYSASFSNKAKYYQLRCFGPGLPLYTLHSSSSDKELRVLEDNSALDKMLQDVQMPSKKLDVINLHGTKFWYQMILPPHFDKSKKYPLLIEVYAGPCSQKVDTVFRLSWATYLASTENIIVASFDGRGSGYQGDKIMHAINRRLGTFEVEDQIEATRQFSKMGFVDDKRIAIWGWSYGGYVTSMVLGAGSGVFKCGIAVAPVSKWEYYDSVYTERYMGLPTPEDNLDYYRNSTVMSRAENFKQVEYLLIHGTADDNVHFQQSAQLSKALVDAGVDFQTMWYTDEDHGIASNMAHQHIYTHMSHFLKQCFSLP

The assay has as its target DPP-IV from porcine kidney (Sus scrofa, UniProt P22411). The experiment in a line: Measurement of the DPP-IV activity (fluorimetric H-Ala-Pro-AFC conversion). Particulars: DPP-IV 1 mU/ml; substrate H-Ala-Pro-AFC 15 μM; Tris/HCl 40 mM, pH 7.4; room temperature; tested form: bis-TFA salt. The protocol:
The activity of the compounds was assayed as follows:
Measurement of the DPP-IV activity:
DPP-IV from porcine kidney (Sigma, Munich)
H-Ala-Pro-AFC (Bachem, Weil am Rhein)
DPP-IV (1 mU/ml, final concentration)
H-Ala-Pro-AFC (15 μM, final concentration) in Tris/HCl (40 mM, pH 7.4), total volume 0.2 ml
The reaction was carried out at room temperature for various times (typically 10 min) and stopped at the end of the reaction by adding 20 μl of ZnCl2(1M). The H-Ala-Pro-AFC conversion was determined fluorimetrically by measuring the emission at 535 nm after excitation at 405 nm. When inhibitors were added, the added buffer volume was adapted so that a total volume of 200 μl was maintained for the assay mixture.
IC50 values for inhibitors were determined by varying the inhibitor concentrations with the stated substrate concentration of 15 μM. Ki and Km values were found by appropriate variation of substrate concentration and inhibitor concentration as described (Dixon, M. and Webb, E. C. (1979) Enzymes, third edition, pp. 47–206, Academic Press). The values for Km, IC50 and Ki were calculated using a commercially available software package (Leatherbarrow, R. J. (1992) GraFit Version 3.0, Erithacus Software Ltd. Staines, U.K.).

For the compound `N#C[C@@H]1CS[C@H]2C[C@](N)(CN3CCCCC3)C(=O)N12`, the IC50 came to 110 nM.
